Measurements reported in PubChem BioAssay AID1224826 (NIAID, 2016)

- Purpose: 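Knock-downs that raise or lower Tnf reporter signal after endotoxin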 (primary screen)
- System: RAW264.7 G9 macrophages from mouse bearing reporters for p65 (GFP) and the Tnf promoter (mCherry)
- Reagent: siRNA pool against mouse genes, 100 nM
- Time to read-out: 16 h of LPS stimulation, after 2 days of siRNA transfection
- Conditions: bacterial lipopolysaccharide (Salmonella minnesota R595), 10 ng/ml
- Measured: 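Imaged Tnf reporter mCherry in nuclei, minus background, normalised per plate to the median and expressed as robust z-scores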
- Scale: Tnf reporter robust z-score: higher = stronger Tnf promoter reporter signal after LPS; Tnf reporter intensity: higher = stronger Tnf promoter reporter signal
- Call rule: 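a well counts as active at a score of -1.3 or below (Tlr4 knock-down control median) or above 3 (raised signal); controls and wells holding fewer than 50 cells are excluded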
- Meaning of the calls: active = Tnf reporter clearly lowered or raised; inactive = no clear change in Tnf reporter
The deposit covers about 17,000 reagents; below is a part drawn at random. Over the whole deposit, about 1,110 (6.6%) are marked active. 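Active means lowered or raised reporter signal; replicate intensities are raw and not normalised per plate.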 Reagents against one gene are numbered here. No sequences are given here.

target gene,pool no.,Tnf reporter robust z-score,fewer than 50 cells in well,"Tnf reporter intensity, replicate 1","Tnf reporter intensity, replicate 2",call
Etv2 (ets variant 2),1,1.46,enough cells in well,316,240,inactive
Msrb2 (methionine sulfoxide reductase B2),1,0.26,enough cells in well,282,228,inactive
Trip10 (thyroid hormone receptor interactor 10),1,1.9,enough cells in well,348,412,inactive
Repin1 (replication initiator 1),1,-0.45,enough cells in well,115,102,inactive
Snph (syntaphilin),1,,fewer than 50 cells per well; well left out of calls,92.4,68.7,inactive
"Fthl17e (ferritin, heavy polypeptide-like 17, member E)",1,2.5,enough cells in well,529,203,inactive
"Zmym6 (zinc finger, MYM-type 6)",1,-0.3,enough cells in well,166,166,inactive
Naxe (NAD(P)HX epimerase),1,0.95,enough cells in well,227,216,inactive
Nat10 (N-acetyltransferase 10),1,1.5,enough cells in well,330,264,inactive
"Eif1ax (eukaryotic translation initiation factor 1A, X-linked)",1,-0.74,enough cells in well,158,189,inactive
Uba6 (ubiquitin-like modifier activating enzyme 6),1,0.47,enough cells in well,153,174,inactive
Ptgr2 (prostaglandin reductase 2),1,,fewer than 50 cells per well; well left out of calls,207,102,inactive
Zbtb20 (zinc finger and BTB domain containing 20),1,-0.45,enough cells in well,104,68.7,inactive
Slc25a17,1,2.03,enough cells in well,152,190,inactive
Slc25a17,2,-1.05,enough cells in well,84.7,82.5,inactive
Rpl39l (ribosomal protein L39-like),1,1.72,enough cells in well,235,138,inactive
Cit (citron),1,1.42,enough cells in well,313,214,inactive
Cit (citron),2,,fewer than 50 cells per well; well left out of calls,152,90.9,inactive
Tiam1 (T cell lymphoma invasion and metastasis 1),1,-0.19,enough cells in well,227,120,inactive
Arg2 (arginase type II),1,-0.93,enough cells in well,127,104,inactive
Or6a2 (olfactory receptor family 6 subfamily A member 2),1,-0.62,enough cells in well,243,44.2,inactive
Tgtp1 (T cell specific GTPase 1),1,,fewer than 50 cells per well; well left out of calls,159,93.9,inactive
1700123K08Rik (RIKEN cDNA 1700123K08 gene),1,-0.82,enough cells in well,157,88.3,inactive
Saxo2 (stabilizer of axonemal microtubules 2),1,0.52,enough cells in well,226,198,inactive
Tafa4 (TAFA chemokine like family member 4),1,1.01,enough cells in well,145,226,inactive
Or8d2 (olfactory receptor family 8 subfamily D member 2),1,-0.43,enough cells in well,124,116,inactive
Eya2 (EYA transcriptional coactivator and phosphatase 2),1,0.49,enough cells in well,273,262,inactive
Dctn6 (dynactin 6),1,0.52,enough cells in well,225,187,inactive
Erp29 (endoplasmic reticulum protein 29),1,-0.27,enough cells in well,211,134,inactive
Taf5l (TATA-box binding protein associated factor 5 like),1,0.34,enough cells in well,225,171,inactive
Fez1 (fasciculation and elongation protein zeta 1),1,-0.37,enough cells in well,211,190,inactive
Myo5a (myosin VA),1,-0.2,enough cells in well,220,213,inactive
Zfp874a (zinc finger protein 874a),1,-0.95,enough cells in well,95.3,109,inactive
Akr1b1 (aldo-keto reductase family 1 member B),1,0.88,enough cells in well,204,235,inactive
Gins4 (GINS complex subunit 4),1,2,enough cells in well,451,108,inactive
Or9g4b (olfactory receptor family 9 subfamily G member 4B),1,0.13,enough cells in well,205,149,inactive
Kctd12b (potassium channel tetramerisation domain containing 12b),1,0.06,enough cells in well,159,159,inactive
"Nt5c2 (5'-nucleotidase, cytosolic II)",1,0.47,enough cells in well,225,168,inactive
Cts8 (cathepsin 8),1,-0.73,enough cells in well,99.4,174,inactive
Tbxa2r (thromboxane A2 receptor),1,-0.49,enough cells in well,274,60.5,inactive
Tgoln1 (trans-golgi network protein),1,0.91,enough cells in well,152,82.5,inactive
B4galt1,1,0.47,enough cells in well,150,212,inactive
Cdkn3 (cyclin dependent kinase inhibitor 3),1,1.19,enough cells in well,257,237,inactive
Ctsll3 (cathepsin L-like 3),1,0.21,enough cells in well,143,76.3,inactive
Dusp3,1,0.12,enough cells in well,210,246,inactive
Slc6a2,1,0.05,enough cells in well,221,146,inactive
Sumo2 (small ubiquitin-like modifier 2),1,-0.93,enough cells in well,75.5,50,inactive
Sh3tc2 (SH3 domain and tetratricopeptide repeats 2),1,-1.14,enough cells in well,109,89.9,inactive
Or7d9 (olfactory receptor family 7 subfamily D member 9),1,-0.91,enough cells in well,165,55.8,inactive
Krtap1-5 (keratin associated protein 1-5),1,,fewer than 50 cells per well; well left out of calls,80.6,24.9,inactive
Shprh (SNF2 histone linker PHD RING helicase),1,-0.28,enough cells in well,94.6,90.7,inactive
Serbp1 (serpine1 mRNA binding protein 1),1,4.3,enough cells in well,401,258,active
Stx5a (syntaxin 5A),1,,fewer than 50 cells per well; well left out of calls,98.1,84.9,inactive
Rps5 (ribosomal protein S5),1,-0.94,enough cells in well,207,143,inactive
Cmklr1 (chemerin chemokine-like receptor 1),1,0.41,enough cells in well,233,358,inactive
Vmn1r203 (vomeronasal 1 receptor 203),1,1.77,enough cells in well,165,163,inactive
Hyal3 (hyaluronoglucosaminidase 3),1,-1.41,enough cells in well,112,61.3,active
Acot4 (acyl-CoA thioesterase 4),1,-0.81,enough cells in well,7,88.8,inactive
